Reference: PubChem BioAssay AID540276 (National Center for Advancing Translational Sciences (NCATS), 2011)
About 5,400 (1.8%) of roughly 300,000 compounds were called active. Inconclusive results, whose numbers are uncertain, are shown with a selection of clear calls. Calls follow the shape of the full dose curve; tested in HEK293 cells. Where the call is inconclusive, the potency comes from a doubtful curve fit.

experiment: qHTS for inhibitors of binding or entry into cells for Marburg Virus; settings: Marburg virus pseudotyped entry inhibition, cell reporter; series mostly up to 37.8 µM
Potency is read from the fitted curve at half-maximal effect.

| Structure (SMILES) | Potency |
| --- | --- |
| Cc1ccc(C)c(NC(=O)CCc2c(C)nn(-c3ccc(N4CCCCC4)nn3)c2C)c1 | inconclusive: 35.5 µM [inhibitor, single point] |
| Cc1ccccc1-c1cc2nc(C)c(C)c(=O)n2[nH]1 | inactive |
| COc1ccccc1NCc1cc(=O)oc2c(C)c(O)ccc12 | inconclusive: 12.6 µM [inhibitor, partial curve, poor fit] |
| O=C(Nc1ccc2c(c1)OCO2)c1ccc(Cl)cc1Cl | active: 6.31 µM |
| Cc1ccc(C(=O)OC(C)C(=O)NC2CCCCC2C)cc1S(=O)(=O)N1CCOCC1 (configuration not stated) | inactive |
| Cc1cccc(OCCOCCN2CCNCC2)c1C | inconclusive: 3.16 µM [activator, partial curve, poor fit] |
| Cc1ccc(Oc2c(C(N)=O)cc([N+](=O)[O-])cc2[N+](=O)[O-])cc1 | inconclusive: 12.6 µM [inhibitor, partial curve, poor fit] |
| COc1ccc(NC(=O)CSc2nc(-c3ccco3)cc(C(F)(F)F)n2)cc1Cl | inconclusive: 10 µM [inhibitor, partial curve, poor fit] |
| CCCN(CCC)C(=O)Cn1c(=O)n(-c2ccc(Cl)cc2)c(=O)c2c3c(sc21)CCCC3 | inconclusive: 10 µM [inhibitor, single point] |
| COc1ccc(CNCCC(c2ccc(OC(C)C)cc2)c2ccccc2OC)cc1OC (configuration not stated) | inconclusive: 11.2 µM [inhibitor, single point] |
| Fc1ccc(-c2cn3cc(Cc4ccccc4)sc3n2)cc1 | inconclusive: 6.31 µM [inhibitor, partial curve, poor fit] |
| COc1ccc(COC(=O)N/N=C2\C[C@@H](O)[C@@H](O)[C@@H]3[C@@H]4C(=O)N(Cc5ccccc5)C(=O)[C@@H]4CC[C@H]23)cc1 | inactive |
| CCc1ccc2oc(-c3cc(NC(=O)c4cc([N+](=O)[O-])ccc4N4CCOCC4)ccc3Cl)nc2c1 | inconclusive: 35.5 µM [inhibitor, single point] |
| O=C(NC1CCCC1)C(c1ccncc1)N(Cc1ccco1)C(=O)c1ccc(-c2ccccc2)[nH]1 (configuration not stated) | active: 10 µM |
| CCN(CC)S(=O)(=O)c1cc(NC(=O)C(CC(C)C)NC(N)=O)ccc1C (configuration not stated) | inconclusive: 22.4 µM [inhibitor, single point] |
| CC(C)NS(=O)(=O)c1ccc(CCC(=O)O)cc1 | inactive |
| N#CC(c1ccc(Cl)nn1)c1ccc(Cl)cc1Cl (configuration not stated) | inconclusive: 22.4 µM [inhibitor, single point] |
| COc1ccc(C(c2nnnn2Cc2ccccc2)N2CCN(c3nc4ccccc4s3)CC2)cc1 (configuration not stated) | inconclusive: 10 µM [inhibitor, partial curve, poor fit] |
| CCOC(=O)N1CCN(C(=O)CNC(=O)c2nn(-c3ccc(OC)cc3)c(=O)c3ccccc23)CC1 | inactive |
| CCc1ccc2c(c1)-c1ccccc1S(=O)(=O)N2CC(=O)N1CCCCC1 | inconclusive: 1.78 µM [activator, partial curve, poor fit] |
| CCOC(=O)CC1(C)NC(=O)c2c(C)sc(C(=O)OCC)c2N1 (configuration not stated) | inactive |

Entries listed so far that have a carbonyl joined to an NH by a bond outside any ring, in the order listed:

| Structure (SMILES) | Potency |
| --- | --- |
| Cc1ccc(C)c(NC(=O)CCc2c(C)nn(-c3ccc(N4CCCCC4)nn3)c2C)c1 | inconclusive: 35.5 µM [inhibitor, single point] |
| O=C(Nc1ccc2c(c1)OCO2)c1ccc(Cl)cc1Cl | active: 6.31 µM |
| Cc1ccc(C(=O)OC(C)C(=O)NC2CCCCC2C)cc1S(=O)(=O)N1CCOCC1 (configuration not stated) | inactive |
| Cc1ccc(Oc2c(C(N)=O)cc([N+](=O)[O-])cc2[N+](=O)[O-])cc1 | inconclusive: 12.6 µM [inhibitor, partial curve, poor fit] |
| COc1ccc(NC(=O)CSc2nc(-c3ccco3)cc(C(F)(F)F)n2)cc1Cl | inconclusive: 10 µM [inhibitor, partial curve, poor fit] |
| COc1ccc(COC(=O)N/N=C2\C[C@@H](O)[C@@H](O)[C@@H]3[C@@H]4C(=O)N(Cc5ccccc5)C(=O)[C@@H]4CC[C@H]23)cc1 | inactive |
| CCc1ccc2oc(-c3cc(NC(=O)c4cc([N+](=O)[O-])ccc4N4CCOCC4)ccc3Cl)nc2c1 | inconclusive: 35.5 µM [inhibitor, single point] |
| O=C(NC1CCCC1)C(c1ccncc1)N(Cc1ccco1)C(=O)c1ccc(-c2ccccc2)[nH]1 (configuration not stated) | active: 10 µM |
| CCN(CC)S(=O)(=O)c1cc(NC(=O)C(CC(C)C)NC(N)=O)ccc1C (configuration not stated) | inconclusive: 22.4 µM [inhibitor, single point] |
| CCOC(=O)N1CCN(C(=O)CNC(=O)c2nn(-c3ccc(OC)cc3)c(=O)c3ccccc23)CC1 | inactive |

Remaining list, next part

| Structure (SMILES) | Potency |
| --- | --- |
| CC1(C)Cc2c(cnn2-c2ccc(F)cc2)C(NC(=O)Cn2cncn2)C1 (configuration not stated) | inactive |
| O=C1c2ccccc2C(=O)N1CCn1ccnc1 | inconclusive: 2.82 µM [inhibitor, single point] |
| Cc1cc(C)nc(NS(=O)(=O)c2ccc(NC(=O)C3(c4ccc([N+](=O)[O-])cc4)CCCC3)cc2)n1 | inconclusive: 3.16 µM [activator, single point] |
| CCCn1ncc(/C=N/O)c1C | inconclusive: 3.98 µM [activator, partial curve, poor fit] |
| COc1ccc(NC(=O)C#Cc2ccccc2)cc1OC | inconclusive: 35.5 µM [inhibitor, single point] |
| CCOC(=O)c1sc2nc[nH]c(=O)c2c1C | inactive |
| NS(=O)(=O)c1ccc(N=Cc2c(O)n(-c3ccccc3)c(=O)[nH]c2=O)cc1 | inactive |
| O=C(COC(=O)c1ccc2ncsc2c1)Nc1ncc(Cl)cc1Cl | inactive |
| CNC(=S)N/N=C/c1cn(CCOc2cccc(OC)c2)c2ccccc12 | inconclusive: 1.26 µM [activator, single point] |
| O=C(CSc1ccc2c(c1)OCCO2)Nc1ccc2c(c1)OCO2 | inactive |
| COc1ccc(Cn2nnnc2C(c2cccs2)N2CCN(c3ccc([N+](=O)[O-])cc3)CC2)cc1 (configuration not stated) | inconclusive: 7.08 µM [inhibitor, partial curve] |
| CC1CCc2cc(F)ccc2N1C(=O)CSc1nnc2c(n1)[nH]c1ccccc12 (configuration not stated) | inconclusive: 35.5 µM [inhibitor, single point] |
| COCCNC(=O)Cn1c(=O)n(CCCCCC(=O)Nc2ccccc2)c(=O)c2sccc21 | inconclusive: 35.5 µM [activator, partial curve, poor fit] |
| CCOC(=O)C1=C(N)c2ccccc2C[C@H]1C(C)C | inconclusive: 6.31 µM [inhibitor, single point] |
| O=S(=O)(c1ccccc1)n1ccc(-c2cnc(-c3ccccc3)s2)n1 | inactive |
| O=C(O)c1cccc(-n2cccc2C=C2C(=O)c3ccccc3C2=O)c1 | inconclusive: 35.5 µM [activator, single point] |
| CCOCCCN(Cc1ccco1)C(=O)c1cc2c(=O)[nH]c3ccc(C)cc3c2s1 | inconclusive: 11.2 µM [inhibitor, single point] |
| CCCCCC(=O)Nc1ccc(N2CCN(C(=O)CCC)CC2)cc1 | inconclusive: 10 µM [activator, partial curve, poor fit] |
| COC(=O)c1ccc(NC(=O)C(=O)N2CCN(C(=S)Nc3cccc(C)c3C)CC2)cc1 | inconclusive: 3.98 µM [activator, single point] |
| CN(C)S(=O)(=O)N1CCCC(C(=O)c2ccc(-c3ccccc3)c(F)c2)C1 (configuration not stated) | inconclusive: 23.1 µM [inhibitor, partial curve, poor fit] |
| CC(C)NC(=O)CSc1nc2ccccc2n1CC(=O)N(C(C)C)C(C)C | inactive |
